Experimental data: PMC7819943, “Rice protein-binding microarrays: a tool to detect cis-acting elements near promoter regions in rice”
The list shows a part of the results.

The sequences below were run against T1, OsSMF1 (Oryza sativa, UniProt Q6ZLB0 1-436) (assay: protein-binding microarray (RPBM); PBS, 2% BSA, 51.3 ng/ul salmon testes DNA, 50 uM zinc acetate, 200 nM TF, 25 C, 1 h; high values mean tight binding). Conditions: protein: recombinant; tags: N-terminal polyhistidine and DsRed monomer fusion (pET32a); chain copies: 2; label: CyDye5-dUTP incorporated in the synthesized complementary strand; 3' TTTTT single-stranded linker to array surface; dsDNA, one strand shown.
T1 sequence: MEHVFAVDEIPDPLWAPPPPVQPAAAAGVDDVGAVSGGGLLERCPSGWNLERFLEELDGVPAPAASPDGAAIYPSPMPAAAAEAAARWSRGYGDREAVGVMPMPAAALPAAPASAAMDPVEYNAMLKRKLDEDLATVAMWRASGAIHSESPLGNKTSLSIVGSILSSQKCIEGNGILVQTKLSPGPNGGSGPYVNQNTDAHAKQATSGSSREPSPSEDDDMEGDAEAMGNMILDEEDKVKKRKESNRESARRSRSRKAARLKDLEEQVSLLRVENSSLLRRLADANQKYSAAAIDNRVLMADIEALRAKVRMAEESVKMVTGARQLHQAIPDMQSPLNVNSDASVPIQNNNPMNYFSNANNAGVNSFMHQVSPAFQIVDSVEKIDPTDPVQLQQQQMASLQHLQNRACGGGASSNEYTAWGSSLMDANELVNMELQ
Outline: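 Using Ni–NTA, transcription factors fused N-terminally to polyhistidine and DsRed were purified after expression in E. coli BL21-CodonPlus. These were incubated at 200 nM with a blocked, double-stranded custom Agilent array for 1 h at 25 °C in a buffer containing 50 µM zinc acetate, and the array was washed. The binding signal is per-feature fluorescence intensity (arbitrary units) on an Axon 4000B scanner.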

Point of comparison: “AGAGAGCTACGTGCCGACATTTGGAGAAAGCGTGACGGGGCGGAGTCACCTAGTGCAG”, binding signal 5530 fluorescence intensity (a.u.). Against it:
- GAAACGATGGTTTGAGTACTGACTTGGCAATGCTGGTCATCGGAGTCACCTAGTGCAG — higher, 6280 fluorescence intensity (a.u.)
- GCCGGTCGCCGTCGCCGGCGCCGCCGCCACATCTGCTCTCCGGAGTCACCTAGTGCAG — lower, 3950 fluorescence intensity (a.u.)
- TAAATATCAGATCAAAACACACTCATCCTACTAAAAGCCTCGGAGTCACCTAGTGCAG — lower, 4630 fluorescence intensity (a.u.)
- CGTGAGCGGGTGGTGGTGGTGATGGCGTTCGCGGTGGCGACGGAGTCACCTAGTGCAG — lower, 3520 fluorescence intensity (a.u.)
- CACCGCGGTCTCCATCGTCTCCGGCGATGATGGCGGCGGCCGGAGTCACCTAGTGCAG — higher, 15600 fluorescence intensity (a.u.)
- TGGCCTGCCCCTCTCCAGCTCCTTCTCAGCGACGTGTGGCCGGAGTCACCTAGTGCAG — lower, 3590 fluorescence intensity (a.u.)
- ATAATTCACGAACTGCTTCAGAGTCAGCAGCACGGATTTTCGGAGTCACCTAGTGCAG — lower, 3230 fluorescence intensity (a.u.)
- TTAATAGATGACGCCGTTAATCTTTAATATCACGTTTGACCGGAGTCACCTAGTGCAG — lower, 3730 fluorescence intensity (a.u.)
- ACCAACAAGGTCGTCGCCGACGACGCCGACGCCGACGCCGCGGAGTCACCTAGTGCAG — higher, 27600 fluorescence intensity (a.u.)
- AGACCCTTTACCAATGCAATCCTGACGTGCTTCACCTCACCGGAGTCACCTAGTGCAG — lower, 4790 fluorescence intensity (a.u.)
- TTCTATTTTCGCATGTGGCATTTGTGGCTGCTTGCTAGACCGGAGTCACCTAGTGCAG — lower, 3690 fluorescence intensity (a.u.)
- CGCCGCCTCACCAGCGCCACCTCCACCTCCACCTACGTCTCGGAGTCACCTAGTGCAG — lower, 3270 fluorescence intensity (a.u.)
- ACAGAAAGTAAGAAAATTGGGCCCACATGTCATCCTGTCGCGGAGTCACCTAGTGCAG — lower, 3510 fluorescence intensity (a.u.)
- CCGTACGAATTAGGATGCCACGTGGCATCCCTCTCCTCTGCGGAGTCACCTAGTGCAG — higher, 27800 fluorescence intensity (a.u.)
- AAGACACACGACTTAATACCGACATGGAAAGCTCAGCTGCCGGAGTCACCTAGTGCAG — lower, 3460 fluorescence intensity (a.u.)
- GCGCGCGTGCTGGCCTGCTGACGTGGTAACGGCACAAACGCGGAGTCACCTAGTGCAG — higher, 14000 fluorescence intensity (a.u.)
- AAACGGCAGGCTGCCACGTCAGAGGCGTACGTGTGACGCTCGGAGTCACCTAGTGCAG — higher, 18100 fluorescence intensity (a.u.)
- TACATTCCCGTGTTTGTCTGCTCCGGCTCCACCCGAACTCCGGAGTCACCTAGTGCAG — lower, 3690 fluorescence intensity (a.u.)
- ACTAGCGCCGACGCGGAACTTACGGCTTGGATTTGGGACTCGGAGTCACCTAGTGCAG — lower, 3500 fluorescence intensity (a.u.)
- ACAGGTGGGCCCCACAGTGACGTCACAGGAAGCTGACCCACGGAGTCACCTAGTGCAG — higher, 5670 fluorescence intensity (a.u.)
- AGTATATATGACACATCTCGAGTTAACCCTTAAAATTTCCCGGAGTCACCTAGTGCAG — lower, 3240 fluorescence intensity (a.u.)
- CCTTCCAGCAATAAATCACCCTAGGGAAGAACGATTTATCCGGAGTCACCTAGTGCAG — lower, 4220 fluorescence intensity (a.u.)
- TCGGCTCCCCATCGCCGCCGCGGAACAATCGCATCGCTACCGGAGTCACCTAGTGCAG — higher, 29400 fluorescence intensity (a.u.)
- ACTTGCACAGCTCAGCGGAAGGCTGCGTAGTCATCTCGTTCGGAGTCACCTAGTGCAG — lower, 4650 fluorescence intensity (a.u.)
- TCGTCCTTTCTCTCATGTCGTCATCCTCATCGACTCATCACGGAGTCACCTAGTGCAG — higher, 5630 fluorescence intensity (a.u.)
- CGCGTGCGTGTGGCGGCCGCCGCCACGGCAACGTGCTTCTCGGAGTCACCTAGTGCAG — lower, 3830 fluorescence intensity (a.u.)
- CTCAGATTCTCAGTGACAGACAGGATCAGCAAAACAAGCACGGAGTCACCTAGTGCAG — lower, 4340 fluorescence intensity (a.u.)
- TCCTCCCATCTCTCTCTCTTTTGCCCACACTCTTTTCACACGGAGTCACCTAGTGCAG — higher, 5660 fluorescence intensity (a.u.)
- CGTTGACATCGAGCACATCATCCAACTTCCATACCATCTGCGGAGTCACCTAGTGCAG — lower, 3240 fluorescence intensity (a.u.)
- GAAGTGGTTCTGCACTGTGATTTGAAGCCTAGCAACGTGCCGGAGTCACCTAGTGCAG — higher, 35800 fluorescence intensity (a.u.)
- TGCCACGCCAAGTCGCCACCCTTTGGTGTTCGTCCCGTTGCGGAGTCACCTAGTGCAG — lower, 3230 fluorescence intensity (a.u.)
- ATTTGCCAAACCACGTCCACCTGGCGCAGACACCACACCACGGAGTCACCTAGTGCAG — lower, 4890 fluorescence intensity (a.u.)
- CGGCCGGCTAGCTTCTGATCTGGCCACTGCCACGACGCCACGGAGTCACCTAGTGCAG — higher, 6320 fluorescence intensity (a.u.)
- AATAGTAGGCTATAAGCCGGCTAAATGCTGAGGTGGAGGACGGAGTCACCTAGTGCAG — lower, 5420 fluorescence intensity (a.u.)
- AATGTCATGTCTTTGTCATCACAAGCATAACTTTCAACCGCGGAGTCACCTAGTGCAG — lower, 4570 fluorescence intensity (a.u.)
- CCGGCAAGTGTCTTGTTGTGACTGGACTGGATATTGTGAACGGAGTCACCTAGTGCAG — higher, 6440 fluorescence intensity (a.u.)
- CTTTTATAATGTTTGTAAGACGTGGATCTGTATGTCAACTCGGAGTCACCTAGTGCAG — lower, 4380 fluorescence intensity (a.u.)
- TCGTCGTTAGTCCGTCCTCATCCGTGTGCCATTAACGGTGCGGAGTCACCTAGTGCAG — lower, 3160 fluorescence intensity (a.u.)
- CCTCTCGAATCATAGATTCACTAAATAGAACATTCAAAATCGGAGTCACCTAGTGCAG — lower, 3400 fluorescence intensity (a.u.)
- ATAAAGTTTATCATAACTTTCACAAACTATACATATATCACGGAGTCACCTAGTGCAG — higher, 29800 fluorescence intensity (a.u.)
- CCACCCATCTCTTTCCATACAACCACTCCCTGGCTCCCTGCGGAGTCACCTAGTGCAG — lower, 3140 fluorescence intensity (a.u.)
